At least one structure is not confirmed: it was looked up by name or label, or the drawing left a doubt.
Test system: LPS-induced sepsis
Assay: LPS-induced sepsis in mice, intraperitoneal administration: serum immune marker panel (Luminex/ELISA)
Format: in vivo, C57BL/6 mice
Conditions: dexamethasone 10 mg/kg PO (positive control)
Protocol: Male C57BL/6 mice weighing 10-20 g were used. Vehicle and active agents (i.e., CBD and hydroxychloroquine) alone or in combination were administered intraperitoneally (IP) (Table 4) or orally (Table 5) at 1 hour before LPS (100 μg/100 μL/mouse) injected intravenously (IV). At 2 hours after LPS injection, blood was collected from all mice by cardiac puncture, sera processed and assayed for biomarkers using either the Th17-plex for IL-1β, IL-2, IL-10, IL-12 (p70), IFN-γ and TNF-α by Luminex, plus IL-6 and D-dimer by ELISA, or the 23-plex for IL-1α, IL-1β, IL-2, IL-3, IL-4, IL-5, IL-6, IL-9, IL-10, IL-12(p40), IL-12(p70), IL-13, IL-17A, Eotaxin, G-CSF, GM-CSF, IFN-γ, KC, MCP-1(MCAF), MIP-1α, MIP-1β, RANTES, and TNF-α by Luminex, plus IL-6 by ELISA. ANOVA followed by Dunnett's test was applied for comparison between vehicle and treatment groups. p<0.05 is considered significant.

C[C@@H]1C[C@H]2[C@@H]3CCC4=CC(=O)C=C[C@]4(C)[C@@]3(F)[C@@H](O)C[C@]2(C)[C@@]1(O)C(=O)CO [Dexamethasone]
significantly (p<0.05) reduced: IL-1β level vs vehicle group | IL-2 level vs vehicle group | IL-12(p70) level vs vehicle group | TNF-α level vs vehicle group

Reference: US20230128114A1, “METHODS AND COMPOSITIONS FOR TREATING OR PREVENTING AN INFLAMMATORY CONDITION” (priority 2020, published 2023)
